Patent publication US7611696B2, “Sunscreen compositions as well as dihydropyridines and dihydropyranes” (DSM IP Assets B.V., priority 2002, dated 2009)
At least one compound was matched to its structure with a doubt left.

Assay: UV absorption (λmax and ε) of the prepared UV-A screening compounds
Format: physicochemical
Conditions: extinction coefficient at the UV absorption maximum; solvent not stated

SMILES: CCCCC(CC)COC(=O)C(C#N)=C1C=C(C)OC(C)=C1 (stereo not shown) [Example 2, 2-ethylhexyl (2,6-dimethyl-pyran-4-ylidene) cyanoacetate]
- ε (at λmax): 25′548
